Test results reported in patent US4179433A, “Angiotensin II antagonist peptides containing an alpha-aminooxyacid in the position-1” (Richter Gedeon Vegyeszeti Gyar Rt., priority 1977, dated 1979).
Not every detail of the peptide structures is certain; ends, links or a residue may be inferred. Peptide text beside a SMILES is read from it.

Columns and labels:
narcoticized male cats [1] = assay: Decrease in arterial blood pressure after intravenous administration, under i.v. infusion of angiotensin II; type: in vivo, cat; conditions: single dose, angiotensin II infusion 0.5 μg/kg/min, average of 6 experiments
Experimental: The antagonistic activity of the compounds having the formula I was tested on narcoticized male cats. The blood pressure was measured on the cervical artery. The tests were performed by introducing a Hypertension (CIBA) infusion into a lateral femoral vane at a speed of 0.5 μg/kg/min. When the increase in blood pressure was stabilized, the aqueous, physiological or carrier-containing solutions of the test compounds and Saralasin were administered in a single dose, intravenously or subcutaneously, and the decrease in blood pressure was measured. In the Table I the decrease in the arterial blood pressure under the influence of an intravenous administration of the test compounds is illustrated. For comparison Saralasin is used. The data set forth in the Table 1 were obtained by calculating the average of the results of 6 experiments. The margins of error indicate the scatter of the main value.

narcoticized male cats [2] = assay: Decrease in blood pressure after subcutaneous administration, under i.v. infusion of angiotensin II; type: in vivo, cat; conditions: average of five tests

SMILES | Decrease in blood pressure (mmHg) after administration of 10 μg/kg i.v. doses (narcoticized male cats [1]) | Decrease in blood pressure (mmHg) after administration of 20 μg/kg i.v. doses (narcoticized male cats [1]) | Decrease in the blood pressure (mmHg) after 15 minutes (narcoticized male cats [2]; dose 200, additive CMC) | Decrease in the blood pressure (mmHg) after 30 minutes (narcoticized male cats [2]; dose 200, additive CMC) | Decrease in the blood pressure (mmHg) after 60 minutes (narcoticized male cats [2]; dose 200, additive CMC) | Decrease in the blood pressure (mmHg) after 120 minutes (narcoticized male cats [2]; dose 200, additive CMC) | Decrease in the blood pressure (mmHg) after 15 minutes (narcoticized male cats [2]; dose 200, additive gelatine) | Decrease in the blood pressure (mmHg) after 30 minutes (narcoticized male cats [2]; dose 200, additive gelatine) | Decrease in the blood pressure (mmHg) after 60 minutes (narcoticized male cats [2]; dose 200, additive gelatine) | Decrease in the blood pressure (mmHg) after 120 minutes (narcoticized male cats [2]; dose 200, additive gelatine)
CC[C@H](C)[C@H](NC(=O)[C@@H]1CCCN1C(=O)[C@H](Cc1c[nH]cn1)NC(=O)[C@@H](NC(=O)[C@H](Cc1ccc(O)cc1)NC(=O)[C@@H](NC(=O)[C@H](CCCNC(=N)N)NC(=O)CON)C(C)C)[C@@H](C)CC)C(=O)O [(Aminooxyacetyl^1, IIe^8)-AngII, (Aminooxyacetyl^1,Ile^8)-angiotensin II] | -28±2.0 mmHg | -40±5.7 mmHg | – | – | – | – | – | – | – | –
CC[C@H](C)[C@H](NC(=O)[C@H](Cc1ccc(O)cc1)NC(=O)[C@@H](NC(=O)[C@H](CCCNC(=N)N)NC(=O)CON)C(C)C)C(=O)N[C@@H](Cc1c[nH]cn1)C(=O)N1CCC[C@H]1C(=O)N[C@@H](CC(C)C)C(=O)O [(Aminooxyacetyl^1, Leu^8)-AngII, (Aminooxyacetyl^1,Leu^8)-angiotensin II] (HELM PEPTIDE1{[NOCC(=O)[*:2]].R.V.Y.I.H.P.L}$$$$V2.0) | -33±3.6 mmHg | -42±4.2 mmHg | -21±5.8 mmHg | -26±7.2 mmHg | -13±9.4 mmHg | -5±7.8 mmHg | -23±2.0 mmHg | -21±2.2 mmHg | -10±2.8 mmHg | -1±51 mmHg
CC[C@H](C)[C@H](NC(=O)[C@H](Cc1ccc(O)cc1)NC(=O)[C@@H](NC(=O)[C@H](CCCNC(=N)N)NC(=O)[C@@H](C)ON)C(C)C)C(=O)N[C@@H](Cc1c[nH]cn1)C(=O)N1CCC[C@H]1C(=O)N[C@@H](CC(C)C)C(=O)O [(D-α-Aminooxypropionyl^1,Leu^8)-angiotensin II] (HELM PEPTIDE1{[C[C@@H](ON)C(=O)[*:2]].R.V.Y.I.H.P.L}$$$$V2.0) | -30±3.4 mmHg | -38±3.8 mmHg | -21+6.7 mmHg | -24+5.7 mmHg | -16+5.1 mmHg | -1+4.0 mmHg | -24±5.7 mmHg | -21±5.6 mmHg | -9±5.7 mmHg | -3±8.8 mmHg
